Earlier results as cited in patent publication US20220347190A1, “TREATMENT COMPRISING FXR AGONISTS” (Novartis AG, priority 2019, published 2022).
At least one compound was matched to its structure with a doubt left.

Test system: NASH patients
Details: cited from earlier work

CC[C@H]1[C@@H](O)[C@@H]2[C@H](CC[C@]3(C)[C@@H]([C@H](C)CCC(=O)O)CC[C@@H]23)[C@@]2(C)CC[C@@H](O)C[C@@H]12 [obeticholic acid, 6α-ethyl-chenodeoxycholic acid]
efficacy in NASH patients (NAS): significant improvement in NAS
